The chains are these.
T1: wild-type bestrophin-1 (BEST1), BEST1-CFP-Myc (human) (UniProt O76090)
T1 sequence: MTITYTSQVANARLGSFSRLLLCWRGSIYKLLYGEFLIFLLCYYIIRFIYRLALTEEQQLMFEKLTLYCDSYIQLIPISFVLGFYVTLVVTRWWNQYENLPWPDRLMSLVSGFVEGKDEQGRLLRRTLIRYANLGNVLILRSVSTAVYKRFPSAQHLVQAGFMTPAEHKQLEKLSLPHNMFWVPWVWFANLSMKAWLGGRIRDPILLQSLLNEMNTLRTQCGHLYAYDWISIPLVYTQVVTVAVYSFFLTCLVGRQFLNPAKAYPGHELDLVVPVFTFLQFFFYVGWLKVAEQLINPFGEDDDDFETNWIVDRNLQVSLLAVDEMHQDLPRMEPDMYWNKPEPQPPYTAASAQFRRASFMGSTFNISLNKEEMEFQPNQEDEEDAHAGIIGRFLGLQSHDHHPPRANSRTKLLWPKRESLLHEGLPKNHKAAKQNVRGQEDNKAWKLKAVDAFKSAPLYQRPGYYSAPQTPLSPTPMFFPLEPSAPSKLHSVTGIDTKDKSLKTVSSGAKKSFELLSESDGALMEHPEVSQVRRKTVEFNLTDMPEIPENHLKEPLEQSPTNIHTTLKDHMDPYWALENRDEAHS

B1: wild-type bestrophin-1 (BEST1), BEST1-CFP-Myc (protein, UniProt O76090 1-585)
chain: MTITYTSQVANARLGSFSRLLLCWRGSIYKLLYGEFLIFLLCYYIIRFIYRLALTEEQQLMFEKLTLYCDSYIQLIPISFVLGFYVTLVVTRWWNQYENLPWPDRLMSLVSGFVEGKDEQGRLLRRTLIRYANLGNVLILRSVSTAVYKRFPSAQHLVQAGFMTPAEHKQLEKLSLPHNMFWVPWVWFANLSMKAWLGGRIRDPILLQSLLNEMNTLRTQCGHLYAYDWISIPLVYTQVVTVAVYSFFLTCLVGRQFLNPAKAYPGHELDLVVPVFTFLQFFFYVGWLKVAEQLINPFGEDDDDFETNWIVDRNLQVSLLAVDEMHQDLPRMEPDMYWNKPEPQPPYTAASAQFRRASFMGSTFNISLNKEEMEFQPNQEDEEDAHAGIIGRFLGLQSHDHHPPRANSRTKLLWPKRESLLHEGLPKNHKAAKQNVRGQEDNKAWKLKAVDAFKSAPLYQRPGYYSAPQTPLSPTPMFFPLEPSAPSKLHSVTGIDTKDKSLKTVSSGAKKSFELLSESDGALMEHPEVSQVRRKTVEFNLTDMPEIPENHLKEPLEQSPTNIHTTLKDHMDPYWALENRDEAHS
B2: BEST1 I205T-YFP-His (protein, UniProt O76090 1-585)
chain: MTITYTSQVANARLGSFSRLLLCWRGSIYKLLYGEFLIFLLCYYIIRFIYRLALTEEQQLMFEKLTLYCDSYIQLIPISFVLGFYVTLVVTRWWNQYENLPWPDRLMSLVSGFVEGKDEQGRLLRRTLIRYANLGNVLILRSVSTAVYKRFPSAQHLVQAGFMTPAEHKQLEKLSLPHNMFWVPWVWFANLSMKAWLGGRIRDPTLLQSLLNEMNTLRTQCGHLYAYDWISIPLVYTQVVTVAVYSFFLTCLVGRQFLNPAKAYPGHELDLVVPVFTFLQFFFYVGWLKVAEQLINPFGEDDDDFETNWIVDRNLQVSLLAVDEMHQDLPRMEPDMYWNKPEPQPPYTAASAQFRRASFMGSTFNISLNKEEMEFQPNQEDEEDAHAGIIGRFLGLQSHDHHPPRANSRTKLLWPKRESLLHEGLPKNHKAAKQNVRGQEDNKAWKLKAVDAFKSAPLYQRPGYYSAPQTPLSPTPMFFPLEPSAPSKLHSVTGIDTKDKSLKTVSSGAKKSFELLSESDGALMEHPEVSQVRRKTVEFNLTDMPEIPENHLKEPLEQSPTNIHTTLKDHMDPYWALENRDEAHS
B3: BEST1 Y236C-YFP-His (protein, UniProt O76090 1-585)
chain: MTITYTSQVANARLGSFSRLLLCWRGSIYKLLYGEFLIFLLCYYIIRFIYRLALTEEQQLMFEKLTLYCDSYIQLIPISFVLGFYVTLVVTRWWNQYENLPWPDRLMSLVSGFVEGKDEQGRLLRRTLIRYANLGNVLILRSVSTAVYKRFPSAQHLVQAGFMTPAEHKQLEKLSLPHNMFWVPWVWFANLSMKAWLGGRIRDPILLQSLLNEMNTLRTQCGHLYAYDWISIPLVCTQVVTVAVYSFFLTCLVGRQFLNPAKAYPGHELDLVVPVFTFLQFFFYVGWLKVAEQLINPFGEDDDDFETNWIVDRNLQVSLLAVDEMHQDLPRMEPDMYWNKPEPQPPYTAASAQFRRASFMGSTFNISLNKEEMEFQPNQEDEEDAHAGIIGRFLGLQSHDHHPPRANSRTKLLWPKRESLLHEGLPKNHKAAKQNVRGQEDNKAWKLKAVDAFKSAPLYQRPGYYSAPQTPLSPTPMFFPLEPSAPSKLHSVTGIDTKDKSLKTVSSGAKKSFELLSESDGALMEHPEVSQVRRKTVEFNLTDMPEIPENHLKEPLEQSPTNIHTTLKDHMDPYWALENRDEAHS
B4: BEST1 D203A-YFP-His (protein, UniProt O76090 1-585)
chain: MTITYTSQVANARLGSFSRLLLCWRGSIYKLLYGEFLIFLLCYYIIRFIYRLALTEEQQLMFEKLTLYCDSYIQLIPISFVLGFYVTLVVTRWWNQYENLPWPDRLMSLVSGFVEGKDEQGRLLRRTLIRYANLGNVLILRSVSTAVYKRFPSAQHLVQAGFMTPAEHKQLEKLSLPHNMFWVPWVWFANLSMKAWLGGRIRAPILLQSLLNEMNTLRTQCGHLYAYDWISIPLVYTQVVTVAVYSFFLTCLVGRQFLNPAKAYPGHELDLVVPVFTFLQFFFYVGWLKVAEQLINPFGEDDDDFETNWIVDRNLQVSLLAVDEMHQDLPRMEPDMYWNKPEPQPPYTAASAQFRRASFMGSTFNISLNKEEMEFQPNQEDEEDAHAGIIGRFLGLQSHDHHPPRANSRTKLLWPKRESLLHEGLPKNHKAAKQNVRGQEDNKAWKLKAVDAFKSAPLYQRPGYYSAPQTPLSPTPMFFPLEPSAPSKLHSVTGIDTKDKSLKTVSSGAKKSFELLSESDGALMEHPEVSQVRRKTVEFNLTDMPEIPENHLKEPLEQSPTNIHTTLKDHMDPYWALENRDEAHS

No constants are given. Whether binding was seen depends on the method and setting. Binding seen in cells or lysates may run through a third protein. Some entries that bind do so weakly or less than the wild type. Tags and fused reporters may be left off the sequences shown.

The source of these data is PMC8169119.

For this experiment, the target named is T1, wild-type bestrophin-1 (BEST1), BEST1-CFP-Myc (human). Nature of the experiment: co-IP; HEK293 cells co-transfected 1:1 with BEST1(WT)-CFP-Myc and BEST1(mutant or WT)-YFP-His; lysis in 150 mM NaCl, 50 mM Tris, 0.5% IGEPAL CA-630, pH 7.4; precipitated with Myc monoclonal antibody and Dynabeads anti-mouse IgG at 4°C; immunoblotted for His and Myc. (A western blot detects proteins with antibodies after separation by electrophoresis.)
Take B1: the binding entry is “binds”.

Regarding B2, the binding entry was “binds”. The result for B3 reads “binds”; that for B4, “binds”.
